Patent US20100150839A1, “Compositions and Methods for Modulating Cognitive Function” (Massachusetts Institute of Technology, priority 2005, published 2010)
For at least one compound, name, drawing or mass did not settle the structure.

What was measured:
Assay type in all cases: cell-based, rat
[1] = test system: cultured hippocampal neurons; assay: Metabolic pulse labeling (35S-methionine incorporation) in cultured hippocampal neurons; details: in response to spontaneous neuronal activity, BDNF and bicuculline; actinomycin-D and chloramphenicol present
phospho-S6 (S235/S236) = assay: Western analysis of S6 phosphorylation; details: hippocampal neurons, spontaneous neuronal activity
Procedure: (§1) Western analysis. Homogenates were prepared in cold RIPA buffer containing protease inhibitors and phosphatase inhibitors. Hippocampal neurons were homogenized 8 minutes after stimulation. Hippocampal slices were frozen on dry ice 10 minutes after tetanization, and the CA1 and CA3 fields were microdissected and homogenized. Western analysis was performed with rabbit polyclonal antisera against dually-phosphorylated ERK1/2, phospho-S6 (S235/S236), phospho-eIF4E (S209), and phospho-4E-BP (S65) (Cell Signaling). […] Therefore, since 4E-BP2 is the most abundantly expressed 4E-BP in the brain, it is likely that the results reflected 4E-BP2 levels and phosphorylation state. Blots were stripped and reprobed with antisera directed against total ERK1/2, S6, eIF4E, and 4E-BP (Cell Signaling). Results were quantified with ImageJ (NIH), calculated as the ratio of phosphorylated species to […], and then normalized to the untreated control condition Staining of total protein with Ponceau-S confirmed equal loading.

phospho-eIF4E (S209) = assay: Western analysis of eIF4E phosphorylation; details: hippocampal neurons, spontaneous neuronal activity
Procedure: as §1

phospho-4E-BP (S65) = assay: Western analysis of 4E-BP phosphorylation; details: hippocampal neurons, spontaneous neuronal activity
Procedure: as §1

CO[C@H]1C[C@@H]2CC[C@@H](C)[C@@](O)(O2)C(=O)C(=O)N2CCCC[C@H]2C(=O)O[C@H]([C@H](C)C[C@@H]2CC[C@@H](O)[C@H](OC)C2)CC(=O)[C@H](C)/C=C(\C)[C@@H](O)[C@@H](OC)C(=O)[C@H](C)C[C@H](C)/C=C/C=C/C=C/1C [rapamycin]
Bulk translation of endogenous transcripts (35S-methionine incorporation) [1]: comparable to that of U0126
Phosphorylation of S6 (phospho-S6 (S235/S236)): significantly inhibited
Phosphorylation of eIF4E (phospho-eIF4E (S209)): significantly inhibited
Phosphorylation of 4E-BP (phospho-4E-BP (S65)): significantly inhibited
